Data from PubChem BioAssay AID624291 (National Center for Advancing Translational Sciences (NCATS), 2012).
About 220 (0.063%) of roughly 350,000 compounds were called active. Inconclusive results, whose numbers are uncertain, are shown with a selection of clear calls. The call rests on the fitted dose curve; in most records, active means well fitted activation curve with a large enough effect; inconclusive means small, poorly fitted or top-dose-only effect; inactive means no such curve, though single readings can be large or run the other way. A potency beside an inconclusive call is a rough fit, not a confirmed value.

Assay: qHTS for Activators of Integrin-Mediated Alleviation for Muscular Dystrophy; further: nearly all actives have a fitted effect of over 60% in size;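 on activation: 100% = response of the positive control SU9516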
Conditions: alpha7betagal myoblasts, beta-gal FDG fluorescence, 48 h; activation: at 38.3 µM (top of the series)
In short: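 Alpha7betagal+/- myoblasts (passage 13) were plated 16-24 hr, then exposed to compounds (1:260 dilution of DMSO stock) for 48 hours at 37C. After MPER lysis, β-galactosidase reporter activity was read as FDG fluorescence (ex 480/em 540) after 30 minutes.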
Potency means the concentration at half of the fitted maximal effect.

Row | SMILES | Potency | activation
1 | Cn1nccc1C(=O)Nc1sc2c(c1C#N)CCCC2 | inconclusive: 0.891 µM [activator, full curve, poor fit] | 
2 | CCOC(=O)c1c(NC(=O)C2CC(Cl)=CCC2C(=O)O)sc2c1CCCCC2 (stereo not given) | inconclusive: 28.2 µM [activator, single point] | 
3 | NS(=O)(=O)c1cccc(NC(=O)Nc2ccc(Cl)cc2)c1 | inconclusive: 28.2 µM [activator, single point] | 
4 | Cc1ccc(C(=O)NC2CCN(CC(=O)Nc3ccccc3Cl)CC2)cc1 | inconclusive: 11.2 µM [activator, single point] | 
5 | CCCCC(=O)NC(=S)NNC(=O)CC#N |  | inactive: 0%
6 | O=C(NCCCO)C(=O)Nc1cc2c3c(c1)CCN3C(=O)CC2 | inconclusive: 2.51 µM [activator, single point] | 
7 | Cn1cnnc1SCc1ccccc1[N+](=O)[O-] | inconclusive: 5.01 µM [activator, single point] | 
8 | CC(C)(C)NC(=O)CCN(/N=C/c1ccc([N+](=O)[O-])o1)C1=NS(=O)(=O)c2ccccc21 |  | inactive: -47.2%
9 | Cc1ccc(N2C(=O)c3ccccc3NC2(C(=O)O)c2ccccc2)cc1Cl (stereo not given) | inconclusive: 28.2 µM [activator, single point] | 
10 | Cc1nc(S/C(=C/c2ccc(-c3ccc(C(=O)O)cc3)o2)C(=O)O)n[nH]1 |  | inactive: 28%
11 | COc1ccc(CNC(=O)COC(=O)c2ccc(Br)cc2)cc1 | inconclusive: 28.2 µM [activator, single point] | 
12 | COc1ccccc1C(=O)COC(=O)CCCN=C1NS(=O)(=O)c2ccccc21 | inconclusive: 5.01 µM [activator, partial curve, poor fit] | 
13 | O=C(Nc1nc(-c2ccc(Cl)cc2)cs1)C1CCCO1 (stereo not given) | inconclusive: 5.01 µM [activator, single point] | 
14 | CCOC(=O)c1oc2cc(OCC(=O)OC)ccc2c(=O)c1-c1ccc(OC)c(OC)c1 | inconclusive: 0.316 µM [activator, full curve, poor fit] | 
15 | COc1ccc(S(=O)(=O)Nc2c(C)c(C)cc3c2ncn3C)cc1 | inconclusive: 12.6 µM [activator, single point] | 
16 | OCCNCc1ccc(-c2ccccc2)cc1 |  | inactive: -25.9%
17 | O=C(CSc1n[nH]c(-c2cccnc2)n1)Nc1ccc([N+](=O)[O-])cc1Br |  | inactive: -5.83%
18 | Cc1ccc(C2(c3noc(CN(C)CCO)n3)CCCC2)cc1 | inconclusive: 5.01 µM [activator, single point] | 
19 | COc1ccc(-c2nnc(-c3cc(OC)c(OC)c(OC)c3)o2)cc1OC | inconclusive: 10 µM [activator, partial curve, poor fit] | 
20 | Cc1cc(C)c(S(C)(=O)=O)c(Oc2cccc(C(F)(F)F)c2)n1 |  | inactive: -3.66%
21 | O=C(NNc1cccc([N+](=O)[O-])c1)/C(=C\c1cccnc1)NC(=O)c1ccccc1 | inconclusive: 20 µM [activator, single point] | 
22 | COc1ccc(NS(=O)(=O)c2cccc(C(=O)NNC(=O)c3ccc(=O)[nH]c3)c2)cc1 | inconclusive: 3.16 µM [activator, partial curve, poor fit] | 
23 | OCCC1CN(Cc2ccc(Oc3ncccn3)cc2)CCN1Cc1ccc(F)c(F)c1 (stereo not given) |  | inactive: 1.25%
24 | O=c1c2ccccc2sc2ccc(Cl)cc12 | inconclusive: 5.01 µM [activator, single point] | 

Row | SMILES | Potency | activation
25 | CCOC(=O)C1=C(C)NC(C)=C(C(=O)OCC)C1c1ccco1 | inconclusive: 7.94 µM [activator, partial curve, poor fit] | 
26 | CCOC(=O)C1=C(C)OC(N)=C(C#N)C1c1cc(F)ccc1F (stereo not given) |  | inactive: -1.05%
27 | Cc1ccc(-c2cc(C(F)(F)F)c(C#N)c(SCCC#N)n2)o1 |  | inactive: -4.57%
28 | O=C(c1cccs1)N1CCc2ccccc21 |  | inactive: 14.8%
29 | COc1ccc(Cl)cc1NC(=O)CN1c2ccccc2CC1C (stereo not given) | inconclusive: 3.16 µM [activator, single point] | 
30 | O=C(/C=C1\C(=O)Nc2ccccc21)/C=C1\C(=O)Nc2ccccc21 |  | inactive: -13.7%
31 | COc1ccc(/C=C/C(=O)Nc2ccccc2C(=O)NCC(c2ccc(OC)cc2)N(C)C)cc1 (stereo not given) |  | inactive: -39.5%
32 | Oc1cccc(C=NNc2ccccn2)c1 |  | inactive: 17.8%
33 | COc1ccccc1Nc1nc2cc(C)ccc2cc1C#N |  | inactive: 2.73%
34 | CN1CCN(NC(=S)NC(C)(C)CC(C)(C)C)CC1 | inconclusive: 2.82 µM [activator, partial curve, poor fit] | 
35 | CN(Cc1cccc(F)c1)C(=O)CN1C(=O)NC2(CCc3ccccc32)C1=O (stereo not given) | inconclusive: 4.47 µM [activator, single point] | 
36 | O=C(CNC(=O)c1ccc(Br)o1)NNC(=O)c1n[nH]c(=O)c2ccccc12 | inconclusive: 28.2 µM [activator, single point] | 
37 | N#Cc1ccc(S(=O)(=O)Nc2ccc3ccccc3n2)cc1 | inconclusive: 11.2 µM [activator, partial curve, poor fit] | 
38 | CSc1nc(N)nc2c1ncn2CC(=O)NCc1ccc2[nH]ccc2c1 |  | inactive: 0%
39 | O=C1CCC(C(=O)N2CCCCO2)CN1Cc1ccc(Cl)cc1 (stereo not given) | inconclusive: 5.01 µM [activator, full curve, poor fit] | 
40 | C=CCc1ccccc1OCC(O)CNC1CCCC1 (stereo not given) |  | inactive: -78.7%
41 | CC(C)CNC(CC(=O)Nc1cccc([N+](=O)[O-])c1)C(=O)O (stereo not given) | inconclusive: 12.6 µM [activator, single point] | 
42 | O=C(COC(=O)CCOc1ccccc1)NCCC1=CCCCC1 | inconclusive: 5.01 µM [activator, single point] | 
43 | COC(=O)c1cccc(-n2sc3ccccc3c2=O)c1 |  | inactive: -40.3%
44 | CCOc1cc(N2CCOCC2)c(OCC)cc1NC(=O)[C@H](C)NC(=O)c1ccco1 | inconclusive: 4.47 µM [activator, full curve] | 
45 | CCC(c1nnc(SCC(=O)Nc2ccc(S(N)(=O)=O)cc2)n1Cc1ccccc1)N(C)C (stereo not given) | inconclusive: 5.01 µM [activator, single point] | 
46 | COc1ccccc1NC(=O)c1sc2nc3n(c(=O)c2c1C)CCC3 | inconclusive: 5.62 µM [activator, full curve, poor fit] | 
47 | COc1cccc(CC(=O)OCC(=O)NNC(=O)c2ccc([N+](=O)[O-])cc2)c1 | inconclusive: 3.55 µM [activator, partial curve, poor fit] | 
48 | NNC(=O)CNC(c1ccccc1)c1cc(Br)ccc1NC(=O)c1ccc(Br)cc1 (stereo not given) | inconclusive: 15.8 µM [activator, partial curve, poor fit] | 

5 of these compounds in a different format:
Row	SMILES	Potency	activation
35	CN(Cc1cccc(F)c1)C(=O)CN1C(=O)NC2(CCc3ccccc32)C1=O (stereo not given)	inconclusive: 4.47 µM [activator, single point]	
36	O=C(CNC(=O)c1ccc(Br)o1)NNC(=O)c1n[nH]c(=O)c2ccccc12	inconclusive: 28.2 µM [activator, single point]	
37	N#Cc1ccc(S(=O)(=O)Nc2ccc3ccccc3n2)cc1	inconclusive: 11.2 µM [activator, partial curve, poor fit]	
38	CSc1nc(N)nc2c1ncn2CC(=O)NCc1ccc2[nH]ccc2c1		inactive: 0%
39	O=C1CCC(C(=O)N2CCCCO2)CN1Cc1ccc(Cl)cc1 (stereo not given)	inconclusive: 5.01 µM [activator, full curve, poor fit]	

The listing continues.

Row | SMILES | Potency | activation
49 | CC1(C)CNC(=O)C=C(c2ccccc2)C1 | inconclusive: 10 µM [activator, single point] | 
50 | COc1ccc2oc(=O)c(C(=O)Nc3cccc(C(C)=O)c3)cc2c1 | inconclusive: 2.82 µM [activator, partial curve, poor fit] | 
51 | COc1ccc(NC(=O)CN2C(=O)NC3(CCCc4ccccc43)C2=O)c(OC)c1 (stereo not given) |  | inactive: -12.4%
52 | O=C(NC1CC2CCCC(C1)N2Cc1ccc(F)cc1)c1ccc(F)cc1 (stereo not given) |  | inactive: 42.1%
53 | COCCn1c(SCC(=O)NCC2CCCO2)nc2c([nH]c3ccccc32)c1=O (stereo not given) | inconclusive: 1 µM [activator, partial curve, poor fit] | 
54 | COc1ccc(C2N=C(c3ccccc3)C(C)(C)N2O)cc1OC (stereo not given) |  | inactive: -33.7% [at 7.66 µM]
55 | COc1ccc(S(=O)(=O)Nc2ccccc2C(=O)N2CCCC2)cc1OC | inconclusive: 1 µM [activator, partial curve, poor fit] | 
56 | O=C(N=C1SC2CS(=O)(=O)CC2N1c1cccc(F)c1)C1CC1 (stereo not given) | inconclusive: 2.24 µM [activator, single point] | 
57 | CC1Sc2ccc(S(=O)(=O)CCC(=O)NC3CCCC(C)C3C)cc2NC1=O (stereo not given) | inconclusive: 12.6 µM [activator, single point] | 
58 | CCc1noc(C)c1C(=O)OCC(=O)NC(=O)c1ccccc1OC |  | inactive: -8.18%
59 | CCC12CN3CCN(CC(C3)/C1=N\NC(=O)Nc1ccccc1)C2 | inconclusive: 5.01 µM [activator, single point] | 
60 | N#Cc1ccccc1NC(=O)CSc1cn[nH]n1 | inconclusive: 3.16 µM [activator, partial curve, poor fit] | 
61 | O=S(=O)(NCC(c1ccco1)N1CCOCC1)c1ccc(Cl)cc1 (stereo not given) | active: 14.1 µM | 
62 | CC(OC(=O)C1CSC2(c3ccc(F)cc3)CCC(=O)N12)C(=O)NC(N)=O (stereo not given) | inconclusive: 10 µM [activator, partial curve, poor fit] | 
63 | Nc1nccnc1C(=O)N/N=C/c1ccco1 | inconclusive: 2.82 µM [activator, single point] | 
64 | O=S(=O)(c1ccccc1)c1cnc(-c2cccnc2)nc1-c1ccc(Cl)cc1Cl | inconclusive: 1 µM [activator, partial curve, poor fit] | 
65 | COc1cccc(NC(=O)N2CCCCCC2)c1 | inconclusive: 0.316 µM [activator, partial curve, poor fit] | 
66 | Cc1c(NC(=O)C(=O)/C=C(\O)c2ccc(Cl)cc2)c(=O)n(-c2ccccc2)n1C |  | inactive: 12.1%
67 | COc1ccc(NS(=O)(=O)c2ccc(NC(C)=O)cc2)nn1 | inconclusive: 3.98 µM [activator, single point] | 
68 | Cc1ccc([N+](=O)[O-])cc1S(=O)(=O)NCC1COc2ccccc2O1 (stereo not given) | inconclusive: 7.08 µM [activator, partial curve, poor fit] | 
69 | COc1cc(/C=N/NC(N)=S)ccc1OCc1ccc(C)cc1 |  | inactive: -20.4%
70 | COc1cccc(C(=O)C[n+]2ccccc2/C=N/O)c1 | inconclusive: 1.58 µM [activator, partial curve, poor fit] | 
